In article PMC2954837:
The exact form of at least one protein or probe is not confirmed. Where cells or extracts were used, other partners may take part.

By UniProt entry, the sequences of proteins in these tests, tags left out. Where a name states a change or a piece, a line headed by the entry shows the natural chain unless it says otherwise.
UniProt P05627, whole entry: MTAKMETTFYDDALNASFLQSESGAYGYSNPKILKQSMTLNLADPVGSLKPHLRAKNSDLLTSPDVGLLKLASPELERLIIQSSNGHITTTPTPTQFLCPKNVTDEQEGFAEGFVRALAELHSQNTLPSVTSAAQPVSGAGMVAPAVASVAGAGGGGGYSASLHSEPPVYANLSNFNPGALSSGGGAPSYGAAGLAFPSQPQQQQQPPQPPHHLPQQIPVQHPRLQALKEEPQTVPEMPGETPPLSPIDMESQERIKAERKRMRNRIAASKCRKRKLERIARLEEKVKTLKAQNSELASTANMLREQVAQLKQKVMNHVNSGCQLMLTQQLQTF
UniProt P47930: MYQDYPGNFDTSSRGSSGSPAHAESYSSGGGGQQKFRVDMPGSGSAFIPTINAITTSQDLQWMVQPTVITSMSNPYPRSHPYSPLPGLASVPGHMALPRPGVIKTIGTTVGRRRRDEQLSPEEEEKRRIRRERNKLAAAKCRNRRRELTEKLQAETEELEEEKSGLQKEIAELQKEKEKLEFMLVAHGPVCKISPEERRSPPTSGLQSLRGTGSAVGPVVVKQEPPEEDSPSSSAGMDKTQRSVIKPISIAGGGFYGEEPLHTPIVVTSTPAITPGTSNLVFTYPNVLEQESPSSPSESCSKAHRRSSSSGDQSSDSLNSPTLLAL
UniProt P48755: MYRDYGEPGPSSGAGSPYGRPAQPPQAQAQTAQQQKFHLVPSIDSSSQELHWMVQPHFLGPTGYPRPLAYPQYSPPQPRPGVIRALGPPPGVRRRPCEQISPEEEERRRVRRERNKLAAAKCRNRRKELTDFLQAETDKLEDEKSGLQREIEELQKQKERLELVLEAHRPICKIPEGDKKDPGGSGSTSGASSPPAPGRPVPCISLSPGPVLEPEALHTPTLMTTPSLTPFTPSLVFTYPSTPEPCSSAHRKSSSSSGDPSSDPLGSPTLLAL
UniProt P15066: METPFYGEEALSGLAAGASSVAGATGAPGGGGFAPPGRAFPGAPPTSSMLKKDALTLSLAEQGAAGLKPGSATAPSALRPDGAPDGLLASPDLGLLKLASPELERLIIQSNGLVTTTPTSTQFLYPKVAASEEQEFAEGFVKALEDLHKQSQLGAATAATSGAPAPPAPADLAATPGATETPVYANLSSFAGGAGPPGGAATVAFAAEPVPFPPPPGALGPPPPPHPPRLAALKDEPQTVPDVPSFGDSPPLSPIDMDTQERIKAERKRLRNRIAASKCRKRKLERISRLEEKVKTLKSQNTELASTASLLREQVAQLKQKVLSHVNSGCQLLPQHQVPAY
UniProt P09450: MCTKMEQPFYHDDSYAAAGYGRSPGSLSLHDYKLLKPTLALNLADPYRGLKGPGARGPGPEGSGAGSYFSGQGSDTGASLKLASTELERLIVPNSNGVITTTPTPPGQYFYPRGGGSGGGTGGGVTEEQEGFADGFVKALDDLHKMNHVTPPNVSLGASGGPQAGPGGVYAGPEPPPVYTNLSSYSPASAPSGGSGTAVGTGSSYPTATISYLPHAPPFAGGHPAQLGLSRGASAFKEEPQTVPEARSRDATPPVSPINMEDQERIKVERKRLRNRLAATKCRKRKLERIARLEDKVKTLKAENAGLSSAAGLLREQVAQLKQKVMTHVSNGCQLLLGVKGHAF

Key:
Assay in all cases: EMSA supershift
Details in all cases: uninfected macrophage nuclear extract, poly(dI-dC); 8% glycerol, 1% Ficoll, 25 mM KCl, 25 mM NaCl, 1 mM DTT, 0.5 mM EDTA, 1 ug/ul BSA, 200 ng/ul poly(dI-dC); protein in an extract; label: 32P
[1] = molecular target: c-Jun (mouse (murine B10R macrophages)) (UniProt P05627)
[2] = molecular target: Fra-2 (mouse (murine B10R macrophages)) (UniProt P47930)
[3] = molecular target: Fra-1 (mouse (murine B10R macrophages)) (UniProt P48755)
[4] = molecular target: Jun D (mouse (murine B10R macrophages)) (UniProt P15066)
[5] = molecular target: Jun B (mouse (murine B10R macrophages)) (UniProt P09450)

Measured: binding result

CGTTTGATGACTCAGCCGGAA (double strand) [AP-1 consensus oligonucleotide]
binds: [1] | [2] | [3] | [4] | [5]
